Literature values in patent US7687487B2, “Camptothecin-analog with a novel, “flipped” lactone-stable, E-ring and methods for making and using same” (BioNumerik Pharmaceuticals, Inc., priority 2007, dated 2010).

Details: dissolving in 1 mL of water

In the case of `CC[C@@]1(O)C(=O)OCc2c1cc1n(c2=O)Cc2cc3ccccc3nc2-1` [CPT, (S)-4-Ethyl-4-hydroxy-1 H-pyrano[3′,4′:6,7]indolizino[1,2-b]quinoline-3,14(4H,12H)-dione], the “solubility in water of closed E-ring lactone form” value is listed as “approximately 0.1 μg”.
